PubChem BioAssay AID504804, Drosophila RNAi Screening Center, 2011

Aim: 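Knock-downs shielding fly cells from apoptosis caused by DNA damage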 (primary screen)
Cells: Drosophila Kc cells
Reagent: long dsRNA against Drosophila genes, 0.5 µg dsRNA per well
Time to read-out: 96 h (48 h knock-down, then 48 h drug)
Challenge: doxorubicin 5 µg/ml for 48 h, added 48 h after dsRNA
Detection: 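Viability measured as cellular ATP by luminescence after 48 h knock-down then 48 h doxorubicin at 5 µg/ml; unnormalised plate counts for each replicate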
Scale: raw ATP luminescence: higher = more viable cells, protection from doxorubicin
Hit rule: 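z-score of 2 or more over plate mean in both duplicates, retained only when retests and separate dsRNAs confirm the protection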
The deposit covers about 19,000 reagents; this is an unselected part of those that have a named target and a result. Over the whole deposit, 47 (0.25%) got an active call. 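Signals are raw, not normalised; exact z-scores behind calls not deposited; actives needed confirmation, so some wells reaching 2 SD are inactive.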 A number with no mark means an inactive call.

Target gene | SD above plate mean | raw ATP luminescence, replicate 1 | raw ATP luminescence, replicate 2
Trf4-2 | – | 62900 | 60470
CG31952 | – | 33547 | 37167
CG10418 | – | 66700 | 54777
CG14569 | – | 83847 | 61733
CG13053 | – | 66773 | 62090
CG12035 | – | 64713 | 77380
CG9849 | – | 48223 | 57060
CG32026 | – | 1.45e5 | 1.73e5
CG31538 | – | 51570 | 47573
Vajk1 | 2 to 3 SD above plate mean | 96113 | 1.23e5
CG8475 | – | 1.17e5 | 64080
